Consider one molecule from article doi:10.1101/463919.

The experiment has as its target T1, TOFU-6, recombinant (HA-His- or GST-tagged) (C. elegans) (UniProt Q09293).
T1 sequence: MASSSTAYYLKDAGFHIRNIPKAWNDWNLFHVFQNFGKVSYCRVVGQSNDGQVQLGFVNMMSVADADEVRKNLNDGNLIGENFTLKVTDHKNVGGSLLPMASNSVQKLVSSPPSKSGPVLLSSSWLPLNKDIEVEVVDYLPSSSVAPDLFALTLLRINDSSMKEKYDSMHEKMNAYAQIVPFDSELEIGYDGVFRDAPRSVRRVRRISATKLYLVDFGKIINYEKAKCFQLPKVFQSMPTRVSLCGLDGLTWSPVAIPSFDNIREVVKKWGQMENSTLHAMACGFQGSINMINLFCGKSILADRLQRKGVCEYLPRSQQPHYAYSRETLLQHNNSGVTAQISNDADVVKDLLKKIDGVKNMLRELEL
The experiment in a line: pull-down.

No constants are given. Whether binding was seen depends on the method and setting. Some results given as binding are weak or reduced against the parent protein; the word gives no strength. Where a sequence is shown, tags or fusion partners need not be part of it.

B1: IFE-3, recombinant (HA-His- or GST-tagged) (protein, UniProt O61955 1-251)
chain: MSTSVAENKALSASGDVNASDASVPPELLTRHPLQNRWALWYLKADRNKEWEDCLKMVSLFDTVEDFWSLYNHIQSAGGLNWGSDYYLFKEGIKPMWEDVNNVQGGRWLVVVDKQKLQRRTQLLDHYWLELLMAIVGEQFDEYGDYICGAVVNVRQKGDKVSLWTRDATRDDVNLRIGQVLKQKLSIPDTEILRYEVHKDSSARTSSTVKPRICLPAKDPAPVKEKGPAATTSPSNPGTEATGTSPATPTP
As to B1, the binding entry was “binds”.
